Measured values reported in publication PMC6484411.
These are yes or no findings as the source states them, for the method shown. For some of these results: Binding seen in cells or lysates may run through a third protein. Some results given as binding are weak or reduced against the parent protein; the word gives no strength. For some of these results: Tags and fused reporters may be left off the sequences shown.

Sequences of proteins named here, by UniProt entry; tags and fusion partners are left off. A change or cut given only in a name is not applied to a line headed by its entry. Residues count along the entry.
UniProt P11835: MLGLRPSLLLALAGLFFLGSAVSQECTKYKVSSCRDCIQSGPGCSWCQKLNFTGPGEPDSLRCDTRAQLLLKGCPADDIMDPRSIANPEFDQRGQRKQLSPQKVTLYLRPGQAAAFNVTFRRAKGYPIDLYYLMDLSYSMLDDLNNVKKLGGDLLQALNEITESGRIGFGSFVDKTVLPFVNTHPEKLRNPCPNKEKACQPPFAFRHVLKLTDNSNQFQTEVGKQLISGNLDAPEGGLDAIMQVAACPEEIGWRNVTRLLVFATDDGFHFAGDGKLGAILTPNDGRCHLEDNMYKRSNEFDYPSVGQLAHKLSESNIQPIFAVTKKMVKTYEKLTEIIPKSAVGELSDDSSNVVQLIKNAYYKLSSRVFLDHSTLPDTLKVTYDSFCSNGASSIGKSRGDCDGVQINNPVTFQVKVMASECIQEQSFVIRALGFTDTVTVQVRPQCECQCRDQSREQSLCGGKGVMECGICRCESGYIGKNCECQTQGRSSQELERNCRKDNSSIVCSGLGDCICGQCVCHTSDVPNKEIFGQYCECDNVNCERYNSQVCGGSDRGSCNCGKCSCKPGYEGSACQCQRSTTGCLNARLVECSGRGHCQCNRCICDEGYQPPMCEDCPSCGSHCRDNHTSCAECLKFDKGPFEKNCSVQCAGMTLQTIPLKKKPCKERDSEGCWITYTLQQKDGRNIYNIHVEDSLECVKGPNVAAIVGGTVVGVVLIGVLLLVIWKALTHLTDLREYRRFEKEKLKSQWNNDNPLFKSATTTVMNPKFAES
1-447 fragment of CD18: residues 24-447 of P11835

Experiments:
[1] = target: T1, mindin-Myc (full length mindin) (UniProt Q8BMS2); assay: co-IP; HEK293T cells (stably expressing Mac-1) transfected with plv-Myc, mindin-Myc or fragments for 48 h; RIPA extracts; protein G-agarose with anti-Myc or anti-HA (Figure 3E: anti-CD18 or anti-Myc) overnight at 4 C; three RIPA washes; immunoblot
T1 sequence: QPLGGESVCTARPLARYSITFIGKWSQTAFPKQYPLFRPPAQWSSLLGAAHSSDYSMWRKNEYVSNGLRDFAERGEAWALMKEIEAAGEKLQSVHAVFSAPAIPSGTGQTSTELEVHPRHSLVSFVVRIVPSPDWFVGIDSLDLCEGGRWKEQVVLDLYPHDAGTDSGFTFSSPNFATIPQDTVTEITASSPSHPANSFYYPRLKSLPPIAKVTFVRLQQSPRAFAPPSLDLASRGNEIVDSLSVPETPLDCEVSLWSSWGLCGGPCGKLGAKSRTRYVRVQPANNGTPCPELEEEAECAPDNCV

[2] = target: mouse CD18 expressed in HEK293T cells stably expressing Mac-1 (mouse) (UniProt P11835); assay: as above
[3] = target: mouse CD18 expressed in HEK293T cells stably expressing Mac-1 (mouse) (UniProt P11835); assay: radioligand binding; 200 uL of ^131I-mindin (approximately 0.15 kBq/100 uL) added to 3 x 10^4 cells (RAW264.7 or HEK293T stably expressing Mac-1) in 48-well plates; different incubation periods; washed three times with PBS, collected in 1 mol/L NaOH, gamma-counter; cell uptake percentage; only the binder purified
[4] = target: mouse CD11b expressed in HEK293T cells stably expressing Mac-1 (mouse) (UniProt P05555); assay: as above
[5] = target: endogenous CD18 of Mac-1 on RAW264.7 macrophages (mouse (endogenous in RAW264.7)) (UniProt P11835); assay: as above
[6] = target: endogenous CD11b of Mac-1 on RAW264.7 macrophages (mouse (endogenous in RAW264.7)) (UniProt P05555); assay: as above
[7] = target: mouse CD18 expressed in HEK293T cells stably expressing Mac-1 (mouse) (UniProt P11835); assay: biodistribution of radiolabelled protein in xenografted mice; HEK293T control cells and HEK293T cells stably expressing Mac-1 grown intradermally in nude mice; ^131I-mindin (approximately 40 kBq/100 uL) by tail vein; tissues counted at 4 h or 24 h, %ID/g; only the binder purified
[8] = target: mouse CD11b expressed in HEK293T cells stably expressing Mac-1 (mouse) (UniProt P05555); assay: as above
[9] = target: 1-447 fragment of CD18 (mouse) (UniProt P11835); assay: co-IP; HEK293T cells (stably expressing Mac-1) transfected with plv-Myc, mindin-Myc or fragments for 48 h; RIPA extracts; protein G-agarose with anti-Myc or anti-HA (Figure 3E: anti-CD18 or anti-Myc) overnight at 4 C; three RIPA washes; immunoblot
[10] = target: T2, 1-324 amino acid fragment of CD11b (mouse) (UniProt P05555); assay: as above
T2 sequence: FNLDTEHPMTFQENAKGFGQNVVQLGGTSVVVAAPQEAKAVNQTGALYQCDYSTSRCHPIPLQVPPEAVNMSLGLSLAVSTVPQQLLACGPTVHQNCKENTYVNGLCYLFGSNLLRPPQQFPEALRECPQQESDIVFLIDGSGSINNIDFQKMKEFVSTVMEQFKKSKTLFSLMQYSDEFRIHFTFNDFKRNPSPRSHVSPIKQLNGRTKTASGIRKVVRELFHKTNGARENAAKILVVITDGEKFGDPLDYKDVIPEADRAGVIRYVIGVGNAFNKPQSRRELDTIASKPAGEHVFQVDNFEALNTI

[11] = target: mouse CD11b expressed in HEK293T cells stably expressing Mac-1 (mouse) (UniProt P05555); assay: as above

Measured: binding

mouse CD18 expressed in HEK293T cells stably expressing Mac-1 (from UniProt P11835 24-771) (receptor)
binds: [1]

mouse CD11b expressed in HEK293T cells stably expressing Mac-1 (from UniProt P05555 17-1153) (receptor)
binds: [2] | [1]

B1: Mouse recombinant mindin protein, ^131I-labelled (ligand, UniProt Q8BMS2 26-330)
chain: QPLGGESVCTARPLARYSITFIGKWSQTAFPKQYPLFRPPAQWSSLLGAAHSSDYSMWRKNEYVSNGLRDFAERGEAWALMKEIEAAGEKLQSVHAVFSAPAIPSGTGQTSTELEVHPRHSLVSFVVRIVPSPDWFVGIDSLDLCEGGRWKEQVVLDLYPHDAGTDSGFTFSSPNFATIPQDTVTEITASSPSHPANSFYYPRLKSLPPIAKVTFVRLQQSPRAFAPPSLDLASRGNEIVDSLSVPETPLDCEVSLWSSWGLCGGPCGKLGAKSRTRYVRVQPANNGTPCPELEEEAECAPDNCV
modifications: ^131I label (chloramine-T radioiodination)
binds: [3] | [4] | [5] | [6] | [7] | [8]

B2: mindin-Myc (full length mindin) (protein, UniProt Q8BMS2 26-330)
chain: QPLGGESVCTARPLARYSITFIGKWSQTAFPKQYPLFRPPAQWSSLLGAAHSSDYSMWRKNEYVSNGLRDFAERGEAWALMKEIEAAGEKLQSVHAVFSAPAIPSGTGQTSTELEVHPRHSLVSFVVRIVPSPDWFVGIDSLDLCEGGRWKEQVVLDLYPHDAGTDSGFTFSSPNFATIPQDTVTEITASSPSHPANSFYYPRLKSLPPIAKVTFVRLQQSPRAFAPPSLDLASRGNEIVDSLSVPETPLDCEVSLWSSWGLCGGPCGKLGAKSRTRYVRVQPANNGTPCPELEEEAECAPDNCV
binds: [9] | [2] | [10] | [11]
